Measurements: the supplement of paper PMC12067093, “Discovery and optimisation of a covalent ligand for TRIM25 and its application to targeted protein ubiquitination” (Chemical Science, 2025)
Some of the results follow.

By UniProt entry, the sequences of proteins in these tests, tags left out. Where a name states a change or a piece, a line headed by the entry shows the natural chain unless it says otherwise.
UniProt Q9C0C9: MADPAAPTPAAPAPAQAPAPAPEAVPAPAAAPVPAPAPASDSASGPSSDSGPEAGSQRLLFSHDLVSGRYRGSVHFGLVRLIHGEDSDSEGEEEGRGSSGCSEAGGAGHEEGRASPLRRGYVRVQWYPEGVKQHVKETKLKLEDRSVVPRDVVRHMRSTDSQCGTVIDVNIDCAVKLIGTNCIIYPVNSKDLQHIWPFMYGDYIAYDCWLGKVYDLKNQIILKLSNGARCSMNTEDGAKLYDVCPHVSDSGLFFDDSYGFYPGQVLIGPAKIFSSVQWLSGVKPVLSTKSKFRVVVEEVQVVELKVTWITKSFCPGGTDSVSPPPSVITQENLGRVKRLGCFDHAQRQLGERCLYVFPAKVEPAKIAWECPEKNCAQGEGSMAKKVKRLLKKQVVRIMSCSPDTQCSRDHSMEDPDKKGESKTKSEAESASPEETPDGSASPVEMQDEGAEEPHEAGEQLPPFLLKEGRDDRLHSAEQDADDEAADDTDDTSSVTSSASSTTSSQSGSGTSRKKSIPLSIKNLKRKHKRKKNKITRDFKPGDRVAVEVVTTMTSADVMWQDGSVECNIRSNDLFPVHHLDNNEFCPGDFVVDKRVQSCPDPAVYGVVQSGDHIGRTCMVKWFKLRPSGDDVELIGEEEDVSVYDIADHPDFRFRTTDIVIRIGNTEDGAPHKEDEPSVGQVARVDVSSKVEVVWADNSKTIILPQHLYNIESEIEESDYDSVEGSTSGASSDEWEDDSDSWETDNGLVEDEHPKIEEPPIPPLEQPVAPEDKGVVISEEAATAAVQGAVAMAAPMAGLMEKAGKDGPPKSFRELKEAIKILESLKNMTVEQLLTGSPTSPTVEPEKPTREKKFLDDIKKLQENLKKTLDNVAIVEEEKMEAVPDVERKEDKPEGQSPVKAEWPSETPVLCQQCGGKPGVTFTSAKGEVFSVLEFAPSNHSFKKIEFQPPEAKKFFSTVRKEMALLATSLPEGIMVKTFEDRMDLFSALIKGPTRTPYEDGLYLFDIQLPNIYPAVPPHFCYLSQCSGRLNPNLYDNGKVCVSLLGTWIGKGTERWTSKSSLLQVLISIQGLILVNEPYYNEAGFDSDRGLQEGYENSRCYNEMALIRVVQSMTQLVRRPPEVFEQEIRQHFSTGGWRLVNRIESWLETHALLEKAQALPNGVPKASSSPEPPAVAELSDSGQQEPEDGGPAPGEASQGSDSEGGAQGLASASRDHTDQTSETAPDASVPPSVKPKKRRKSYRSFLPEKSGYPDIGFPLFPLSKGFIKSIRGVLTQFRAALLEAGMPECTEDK
UniProt Q9NPD8: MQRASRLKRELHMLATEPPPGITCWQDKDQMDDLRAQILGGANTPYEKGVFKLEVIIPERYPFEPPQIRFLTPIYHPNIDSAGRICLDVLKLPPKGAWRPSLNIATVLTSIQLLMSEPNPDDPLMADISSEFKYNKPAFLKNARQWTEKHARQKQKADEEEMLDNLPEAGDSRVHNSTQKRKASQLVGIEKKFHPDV
UniProt P51965: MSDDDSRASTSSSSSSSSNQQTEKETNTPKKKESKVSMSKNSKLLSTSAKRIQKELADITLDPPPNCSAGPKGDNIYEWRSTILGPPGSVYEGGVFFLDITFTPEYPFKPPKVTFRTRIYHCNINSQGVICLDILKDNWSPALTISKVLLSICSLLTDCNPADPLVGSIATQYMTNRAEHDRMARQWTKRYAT
UniProt P26368, whole entry, looked up: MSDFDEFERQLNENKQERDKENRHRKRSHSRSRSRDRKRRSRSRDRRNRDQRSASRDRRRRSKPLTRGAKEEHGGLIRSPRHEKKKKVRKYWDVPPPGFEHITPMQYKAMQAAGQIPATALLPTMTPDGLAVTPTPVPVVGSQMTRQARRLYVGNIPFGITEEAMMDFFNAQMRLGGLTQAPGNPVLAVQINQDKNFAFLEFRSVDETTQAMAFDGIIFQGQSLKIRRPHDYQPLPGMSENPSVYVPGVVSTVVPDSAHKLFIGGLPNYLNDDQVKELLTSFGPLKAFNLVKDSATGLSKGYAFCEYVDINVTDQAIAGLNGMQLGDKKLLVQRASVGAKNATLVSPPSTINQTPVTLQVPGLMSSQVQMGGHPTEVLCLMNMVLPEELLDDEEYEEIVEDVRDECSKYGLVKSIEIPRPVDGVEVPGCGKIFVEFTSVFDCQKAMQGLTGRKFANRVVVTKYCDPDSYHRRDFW
UniProt Q9NPG3, whole entry, looked up: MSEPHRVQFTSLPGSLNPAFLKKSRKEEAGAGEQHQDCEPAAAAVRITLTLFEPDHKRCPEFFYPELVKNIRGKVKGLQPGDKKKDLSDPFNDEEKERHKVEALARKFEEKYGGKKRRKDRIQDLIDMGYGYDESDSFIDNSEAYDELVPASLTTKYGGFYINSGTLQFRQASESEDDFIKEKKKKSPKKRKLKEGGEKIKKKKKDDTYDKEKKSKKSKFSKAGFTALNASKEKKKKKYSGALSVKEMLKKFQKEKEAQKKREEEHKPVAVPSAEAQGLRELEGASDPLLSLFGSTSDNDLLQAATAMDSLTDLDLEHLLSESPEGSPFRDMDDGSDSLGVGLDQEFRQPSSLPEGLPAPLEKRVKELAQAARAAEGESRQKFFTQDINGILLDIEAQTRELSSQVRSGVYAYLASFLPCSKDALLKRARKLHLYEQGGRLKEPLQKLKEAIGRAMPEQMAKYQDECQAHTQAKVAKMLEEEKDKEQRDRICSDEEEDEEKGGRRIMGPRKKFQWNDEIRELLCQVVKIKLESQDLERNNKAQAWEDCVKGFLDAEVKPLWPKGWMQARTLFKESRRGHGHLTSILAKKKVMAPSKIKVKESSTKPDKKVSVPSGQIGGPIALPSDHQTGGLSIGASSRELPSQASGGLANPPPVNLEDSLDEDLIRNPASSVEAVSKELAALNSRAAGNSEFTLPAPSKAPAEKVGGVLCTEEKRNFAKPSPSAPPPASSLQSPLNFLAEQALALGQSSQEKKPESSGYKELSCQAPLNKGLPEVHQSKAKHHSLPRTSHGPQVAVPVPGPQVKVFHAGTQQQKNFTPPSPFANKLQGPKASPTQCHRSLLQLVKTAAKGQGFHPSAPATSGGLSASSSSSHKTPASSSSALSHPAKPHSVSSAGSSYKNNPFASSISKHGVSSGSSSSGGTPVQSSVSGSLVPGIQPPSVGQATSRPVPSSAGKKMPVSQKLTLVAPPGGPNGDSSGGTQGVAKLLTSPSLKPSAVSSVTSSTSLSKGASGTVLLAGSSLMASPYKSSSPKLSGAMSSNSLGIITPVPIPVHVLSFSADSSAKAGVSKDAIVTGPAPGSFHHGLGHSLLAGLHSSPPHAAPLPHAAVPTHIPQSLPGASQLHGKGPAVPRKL
UniProt O14933: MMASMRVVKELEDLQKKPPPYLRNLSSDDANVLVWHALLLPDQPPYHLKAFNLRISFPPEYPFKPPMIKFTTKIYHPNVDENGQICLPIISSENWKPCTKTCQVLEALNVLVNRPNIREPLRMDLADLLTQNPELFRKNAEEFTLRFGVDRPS
UniProt Q6IPR3: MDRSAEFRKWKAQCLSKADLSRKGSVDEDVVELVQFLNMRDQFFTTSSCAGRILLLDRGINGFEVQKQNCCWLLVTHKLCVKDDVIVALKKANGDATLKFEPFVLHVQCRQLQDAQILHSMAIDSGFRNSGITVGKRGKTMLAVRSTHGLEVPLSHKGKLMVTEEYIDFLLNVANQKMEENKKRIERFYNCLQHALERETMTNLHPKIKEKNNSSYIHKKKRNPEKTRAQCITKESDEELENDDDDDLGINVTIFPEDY
UniProt Q8TBC4: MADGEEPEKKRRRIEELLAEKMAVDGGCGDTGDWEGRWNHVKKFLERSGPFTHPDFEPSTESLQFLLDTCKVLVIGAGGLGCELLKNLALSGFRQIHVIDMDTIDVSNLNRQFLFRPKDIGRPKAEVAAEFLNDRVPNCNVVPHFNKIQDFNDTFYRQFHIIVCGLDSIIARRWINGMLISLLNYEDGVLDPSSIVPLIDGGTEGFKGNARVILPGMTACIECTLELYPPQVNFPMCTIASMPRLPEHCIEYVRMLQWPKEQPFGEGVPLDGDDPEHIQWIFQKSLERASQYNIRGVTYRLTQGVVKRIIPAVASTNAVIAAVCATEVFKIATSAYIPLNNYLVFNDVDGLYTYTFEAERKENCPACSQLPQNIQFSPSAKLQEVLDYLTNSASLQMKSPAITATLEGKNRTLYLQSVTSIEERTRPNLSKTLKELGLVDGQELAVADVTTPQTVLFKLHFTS
UniProt Q6ZT12: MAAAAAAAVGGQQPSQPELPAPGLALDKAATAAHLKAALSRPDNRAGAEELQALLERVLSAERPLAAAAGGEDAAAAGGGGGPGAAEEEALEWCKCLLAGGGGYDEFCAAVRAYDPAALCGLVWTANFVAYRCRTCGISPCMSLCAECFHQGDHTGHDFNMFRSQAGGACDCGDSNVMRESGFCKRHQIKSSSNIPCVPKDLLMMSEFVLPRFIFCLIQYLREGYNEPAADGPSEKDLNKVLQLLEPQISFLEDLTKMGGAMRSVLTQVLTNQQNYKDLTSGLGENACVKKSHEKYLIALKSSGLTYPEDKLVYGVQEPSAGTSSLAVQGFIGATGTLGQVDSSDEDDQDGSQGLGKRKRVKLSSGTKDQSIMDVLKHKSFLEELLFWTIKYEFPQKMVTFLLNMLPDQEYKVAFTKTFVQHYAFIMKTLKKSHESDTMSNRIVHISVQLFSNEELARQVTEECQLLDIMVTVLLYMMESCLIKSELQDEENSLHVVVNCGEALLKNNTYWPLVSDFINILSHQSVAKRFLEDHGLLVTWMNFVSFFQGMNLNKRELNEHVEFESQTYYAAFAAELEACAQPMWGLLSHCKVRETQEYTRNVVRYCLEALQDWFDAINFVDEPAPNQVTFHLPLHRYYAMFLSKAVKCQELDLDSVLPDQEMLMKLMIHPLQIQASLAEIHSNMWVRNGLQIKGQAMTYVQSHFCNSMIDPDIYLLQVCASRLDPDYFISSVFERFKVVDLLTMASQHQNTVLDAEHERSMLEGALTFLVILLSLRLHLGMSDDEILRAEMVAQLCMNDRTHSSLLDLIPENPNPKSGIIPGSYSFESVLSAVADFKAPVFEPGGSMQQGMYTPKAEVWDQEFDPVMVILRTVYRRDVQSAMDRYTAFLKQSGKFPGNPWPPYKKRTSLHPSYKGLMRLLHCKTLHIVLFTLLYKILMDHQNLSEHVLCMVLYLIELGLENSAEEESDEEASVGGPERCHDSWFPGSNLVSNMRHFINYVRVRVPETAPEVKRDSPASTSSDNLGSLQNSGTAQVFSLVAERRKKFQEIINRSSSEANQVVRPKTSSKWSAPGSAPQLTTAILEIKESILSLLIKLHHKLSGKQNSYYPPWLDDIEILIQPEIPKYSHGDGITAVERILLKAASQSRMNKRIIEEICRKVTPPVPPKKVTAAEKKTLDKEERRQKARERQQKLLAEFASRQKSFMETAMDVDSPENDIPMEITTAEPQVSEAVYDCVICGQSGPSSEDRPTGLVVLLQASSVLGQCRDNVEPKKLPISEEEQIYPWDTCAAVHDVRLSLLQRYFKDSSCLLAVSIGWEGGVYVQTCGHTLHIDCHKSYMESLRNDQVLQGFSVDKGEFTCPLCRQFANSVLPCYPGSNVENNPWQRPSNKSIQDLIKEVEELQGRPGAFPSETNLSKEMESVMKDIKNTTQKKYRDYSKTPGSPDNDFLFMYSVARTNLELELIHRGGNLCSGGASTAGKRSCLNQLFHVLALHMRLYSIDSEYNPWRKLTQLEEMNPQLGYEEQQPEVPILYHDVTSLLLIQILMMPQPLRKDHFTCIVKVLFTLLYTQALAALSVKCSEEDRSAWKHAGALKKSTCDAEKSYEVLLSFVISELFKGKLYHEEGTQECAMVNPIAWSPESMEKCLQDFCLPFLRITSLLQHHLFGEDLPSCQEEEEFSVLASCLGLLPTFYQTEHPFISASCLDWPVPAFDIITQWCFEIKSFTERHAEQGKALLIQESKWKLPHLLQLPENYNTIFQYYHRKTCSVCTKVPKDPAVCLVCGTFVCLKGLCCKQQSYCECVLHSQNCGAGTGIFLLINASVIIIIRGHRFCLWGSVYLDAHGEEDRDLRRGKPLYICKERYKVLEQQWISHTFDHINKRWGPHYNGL
UniProt Q9NNW7, whole entry, looked up: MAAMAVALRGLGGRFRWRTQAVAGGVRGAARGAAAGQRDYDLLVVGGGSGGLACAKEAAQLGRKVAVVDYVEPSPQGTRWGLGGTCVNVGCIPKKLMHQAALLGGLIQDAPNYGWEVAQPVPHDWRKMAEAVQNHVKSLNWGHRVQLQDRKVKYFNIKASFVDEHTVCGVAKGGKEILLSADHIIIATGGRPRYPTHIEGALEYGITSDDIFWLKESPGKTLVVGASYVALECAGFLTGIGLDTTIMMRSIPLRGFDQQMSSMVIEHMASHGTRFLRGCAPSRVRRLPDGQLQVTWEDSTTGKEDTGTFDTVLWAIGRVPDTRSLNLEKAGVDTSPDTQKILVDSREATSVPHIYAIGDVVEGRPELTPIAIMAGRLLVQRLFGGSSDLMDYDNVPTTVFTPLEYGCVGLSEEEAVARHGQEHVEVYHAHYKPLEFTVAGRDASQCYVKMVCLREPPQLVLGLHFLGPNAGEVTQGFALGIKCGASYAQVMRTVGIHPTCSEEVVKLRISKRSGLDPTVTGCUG

compound: Cc1cc(ccc1-c1ccccc1)C(=O)N1CCCN(CC1)C(=O)CCl [compound 10]; assay: probe-labelled cysteine peptide fold change vs DMSO (competition) (log2 fold change); higher = less target engagement (more negative = stronger competition); details: 10 µM; THP-1; incubation time: 4 h
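Further: competitive profiling in live THP-1 cells: cysteine peptides tagged with an iodoacetamide desthiobiotin (IA-DTB) probe, intensity after compound treatment relative to DMSO-treated cells.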

Target | probe-labelled cysteine peptide fold change
UAP1_Q16222_251_GIWSIHVYCVDNILVK (UniProt Q16222) | -0.524
UBA1_P22314_494_NFAMIGLGCGEGGEIIVTDMDTIEK (UniProt P22314) | 0.0314
UBR7_Q8N806_158_RPYPDPEDEIPDEMIQCVVCEDWFHGR (UniProt Q8N806) | -0.0128
TXNL1_O43396_135_AGCECLNESDEHGFDNCLRK (UniProt O43396) | -0.225
UBE2O_Q9C0C9_230_CSMNTEDGAK (UniProt Q9C0C9) | 0.04
TYK2_P29597_291_LLAQAEGEPCYIR (UniProt P29597) | -0.119
UBR5_O95071_2267_CATTPMAVHR (UniProt O95071) | 0.0932
UBE4A_Q14139_490_ETCLIPAVQEPK (UniProt Q14139) | -0.186
UBR7_Q8N806_101_CDCGNSK (UniProt Q8N806) | 0.00343
UBE4A_Q14139_465_LLTFNPTYCALK (UniProt Q14139) | -0.0648
UBA1_P22314_481_YFLVGAGAIGCELLK (UniProt P22314) | 0.0196
UBA6_A0AVT1_721_ALQLLHCFPLDIR | 0.0248
UBA6_A0AVT1_17_MEGSEPVAAHQGEEASCSSWGTGSTNK | -0.503
UBR4_Q5T4S7_4916_CNGLLPVWGPHVPESAFATCLAR (UniProt Q5T4S7) | 0.0988
UBR1_Q8IWV7_1200_IHVDLFDLESGEYLCPLCK (UniProt Q8IWV7) | 0.111
UBA1_P22314_706_SLVLQRPQTWADCVTWACHHWHTQYSNNIR (UniProt P22314) | 0.186
UBE2Z_Q9H832_154_CPPDYPIHPPR (UniProt Q9H832) | -0.123
TXNL1_O43396_135+137+149_AGCECLNESDEHGFDNCLR (UniProt O43396) | -0.739

Target | probe-labelled cysteine peptide fold change
UBE2T_Q9NPD8_24_ELHMLATEPPPGITCWQDKDQMDDLR (UniProt Q9NPD8) | -0.422
UBE2E1_P51965_131_IYHCNINSQGVICLDILK (UniProt P51965) | -0.196
UBE2O_Q9C0C9_585_SNDLFPVHHLDNNEFCPGDFVVDK (UniProt Q9C0C9) | -0.118
UBA7_P41226_996_VLVLELSCEGDDEDTAFPPLHYEL (UniProt P41226) | -0.0157
TYMS_P04818_180_IIMCAWNPR (UniProt P04818) | 0.0854
U2AF2_P26368_429_SIEIPRPVDGVEVPGCGK (UniProt P26368) | 0.305
UBAC1_Q9BSL1_19_LHICASDGAEWLEEATEDTSVEK (UniProt Q9BSL1) | -0.11
UBN1_Q9NPG3_711_VGGVLCTEEK (UniProt Q9NPG3) | -0.0763
UBE2L6_O14933_98_IYHPNVDENGQICLPIISSENWKPCTK (UniProt O14933) | -0.284
UBA7_P41226_145_HGVCFLAADTR (UniProt P41226) | 0.272
TYW3_Q6IPR3_109_FEPFVLHVQCR (UniProt Q6IPR3) | 0.105
UBR2_Q8IWV8_112_VGEPTYSCR (UniProt Q8IWV8) | -0.121
UBR4_Q5T4S7_2618+2619_QLEGDCCSFITQLVNHFWK (UniProt Q5T4S7) | 0.0442
UBA3_Q8TBC4_164_QFHIIVCGLDSIIAR (UniProt Q8TBC4) | -0.0578
UBE2I_P63279_75+93_CKFEPPLFHPNVYPSGTVCLSILEEDK (UniProt P63279) | -0.171
UBR3_Q6ZT12_1858_GKPLYICK (UniProt Q6ZT12) | -0.135
TXNRD2_Q9NNW7_483_CGASYAQVMR (UniProt Q9NNW7) | 0.134

same assay, conditions: 50 µM; THP-1; incubation time: 4 h

Target | probe-labelled cysteine peptide fold change
UAP1_Q16222_251_GIWSIHVYCVDNILVK (UniProt Q16222) | -0.0431
UBA1_P22314_494_NFAMIGLGCGEGGEIIVTDMDTIEK (UniProt P22314) | -0.0685
UBR7_Q8N806_158_RPYPDPEDEIPDEMIQCVVCEDWFHGR (UniProt Q8N806) | -0.397
TXNL1_O43396_135_AGCECLNESDEHGFDNCLRK (UniProt O43396) | -0.239
UBE2O_Q9C0C9_230_CSMNTEDGAK (UniProt Q9C0C9) | 0.0673
TYK2_P29597_291_LLAQAEGEPCYIR (UniProt P29597) | -0.312
UBR5_O95071_2267_CATTPMAVHR (UniProt O95071) | -0.592
UBE4A_Q14139_490_ETCLIPAVQEPK (UniProt Q14139) | -0.0363
UBR7_Q8N806_101_CDCGNSK (UniProt Q8N806) | -0.607
UBE4A_Q14139_465_LLTFNPTYCALK (UniProt Q14139) | 0.0328
UBA1_P22314_481_YFLVGAGAIGCELLK (UniProt P22314) | 0.032
UBA6_A0AVT1_721_ALQLLHCFPLDIR | 0.215
UBA6_A0AVT1_17_MEGSEPVAAHQGEEASCSSWGTGSTNK | -0.362
UBR4_Q5T4S7_4916_CNGLLPVWGPHVPESAFATCLAR (UniProt Q5T4S7) | -0.0016
UBR1_Q8IWV7_1200_IHVDLFDLESGEYLCPLCK (UniProt Q8IWV7) | 0.167
UBA1_P22314_706_SLVLQRPQTWADCVTWACHHWHTQYSNNIR (UniProt P22314) | 0.291
UBE2Z_Q9H832_154_CPPDYPIHPPR (UniProt Q9H832) | -0.0363
TXNL1_O43396_135+137+149_AGCECLNESDEHGFDNCLR (UniProt O43396) | -0.998

Target | probe-labelled cysteine peptide fold change
UBE2T_Q9NPD8_24_ELHMLATEPPPGITCWQDKDQMDDLR (UniProt Q9NPD8) | -0.991
UBE2E1_P51965_131_IYHCNINSQGVICLDILK (UniProt P51965) | 0.423
UBE2O_Q9C0C9_585_SNDLFPVHHLDNNEFCPGDFVVDK (UniProt Q9C0C9) | 0.0764
UBA7_P41226_996_VLVLELSCEGDDEDTAFPPLHYEL (UniProt P41226) | 0.059
TYMS_P04818_180_IIMCAWNPR (UniProt P04818) | 0.00629
U2AF2_P26368_429_SIEIPRPVDGVEVPGCGK (UniProt P26368) | 0.127
UBAC1_Q9BSL1_19_LHICASDGAEWLEEATEDTSVEK (UniProt Q9BSL1) | -0.621
UBN1_Q9NPG3_711_VGGVLCTEEK (UniProt Q9NPG3) | 0.0664
UBE2L6_O14933_98_IYHPNVDENGQICLPIISSENWKPCTK (UniProt O14933) | -0.676
UBA7_P41226_145_HGVCFLAADTR (UniProt P41226) | -0.00263
TYW3_Q6IPR3_109_FEPFVLHVQCR (UniProt Q6IPR3) | 0.148
UBR2_Q8IWV8_112_VGEPTYSCR (UniProt Q8IWV8) | -0.18
UBR4_Q5T4S7_2618+2619_QLEGDCCSFITQLVNHFWK (UniProt Q5T4S7) | -1.45
UBA3_Q8TBC4_164_QFHIIVCGLDSIIAR (UniProt Q8TBC4) | -0.0829
UBE2I_P63279_75+93_CKFEPPLFHPNVYPSGTVCLSILEEDK (UniProt P63279) | -0.0829
UBR3_Q6ZT12_1858_GKPLYICK (UniProt Q6ZT12) | -0.393
TXNRD2_Q9NNW7_483_CGASYAQVMR (UniProt Q9NNW7) | 0.135
